The source of these data is PubChem BioAssay AID2685 (National Center for Advancing Translational Sciences (NCATS), 2010).

This experiment in a line: qHTS Assay for Lipid Storage Modulators in Drosophila S3 Cells.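 On cell number change: cells counted by Cell Tracker Red CMTPX staining in the red channel.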 Conditions: BODIPY lipid droplet fluorescence, 18-24 h; for cell number change: measured here: cell count max response, cells fed with added oleic acid. Put shortly: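 Laser-scanning cytometry quantifies lipid droplet accumulation (500–530 nm total intensity; droplet/cell object ratio) in oleic acid-fed (400 uM added) Drosophila S3 cells treated with a concentration series. 20 uM Triacsin C defined 100% inhibition.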
Background: qHTS replaces the single test concentration by a dilution series.

[1] abbreviates: measured here: cell number channel AC50, cells fed with added oleic acid.
The mark [2] stands for this setting: measured here: lipid fluorescence (Fed channel) AC50, cells fed with added oleic acid.

Molecules are shown by their SMILES. Some of the results follow. Shown are side measurements of this screen, not its main read-out; they come without a call. The list favours compounds with an active or inconclusive main result. Words in brackets tell the shape of the fitted curve; partial curves, single points and poor fits give uncertain potencies.

One may read the AC50 as the concentration at which the activity in the assay is half-maximal. Low values mean greater potency, high ones weaker potency. `CCCCCCn1nc(C(=O)N(CCOC)c2c(N)n(CCCC)c(=O)[nH]c2=O)c2ccccc2c1=O`: the cell number change worked out at 62.2%. In addition, the half-maximal activity concentration (AC50) under setting [1] was 11.6 µM [rising, partial curve, poor fit]. Further, under setting [2], the half-maximal activity concentration (AC50) is 11.6 µM [rising, partial curve].

For the compound `O=c1c(/C=C(\O)c2ccc(F)cc2)nc2ccccc2n1-c1ccccc1`, the cell number change was 106%. Also, under setting [1], the half-maximal activity concentration (AC50) is 23.1 µM [rising, partial curve]. Also, under setting [2], the AC50 was 2.59 µM [rising, partial curve].

As to `CCn1c(=O)c2c3c(sc2n2cnnc12)CCC3`, the cell number change worked out at 8.73%. Besides, under setting [2], the AC50 is 1.84 µM [rising, partial curve].

For the compound `O=C(COC(=O)c1cc(=O)[nH]c(=O)[nH]1)Nc1cccc(S(=O)(=O)N2CCCCC2)c1`, the cell number change is -48.1%. Moreover, the concentration at half-maximal activity (AC50) under setting [1] is 29.1 µM [falling, single point].

Take `COc1ccc(N2CCN(C(=O)CS(=O)Cc3nc(-c4ccc(OC)c(OC)c4)oc3C)CC2)cc1` (centres undefined): the cell number change was -14.9%.

Regarding `COc1ccc(Cc2nnc(Cl)c3ccccc23)cc1OC`, the cell number change is -17.1%. Moreover, the concentration at half-maximal activity (AC50) under setting [1] is 0.411 µM [falling, full curve, poor fit]. Also, under setting [2], the AC50 is 0.58 µM [falling, single point].

Turning to `N=c1n(CCO)c2ccccc2n1Cc1ccc(Cl)cc1`, the AC50 was 6.51 µM [rising, single point] under setting [1] and 6.51 µM [rising, single point] under setting [2].

Turning to `COc1ccc(OCC(=O)Nc2ccc3nc(C)sc3c2)cc1`, under setting [1], the concentration at half-maximal activity (AC50) was 0.82 µM [falling, single point].

`Cc1ccccc1-c1noc(CCC(=O)NCCc2ccccc2)n1`: the cell number change amounted to 45.9%. Further, the concentration at half-maximal activity (AC50) under setting [1] is 29.1 µM [rising, single point].

`Cc1nc(N)sc1-c1csc(Nc2cccc(O)c2)n1`: the cell number change is -53%. Further, the concentration at half-maximal activity (AC50) under setting [1] was 14.6 µM [falling, single point]. In addition, the AC50 under setting [2] is 5.8 µM [falling, full curve].

Take `CCOc1ccc2oc(C(=O)N3CCN(c4ccccc4OCC)CC3)c(C)c2c1`: the AC50 under setting [1] is 3.66 µM [rising, single point].

With `Cn1c(CNC(=O)Cc2ccc3c(c2)OCO3)nnc1SCc1ccccc1`, the cell number change was -1.4%.

On to `CCCCn1nnnc1SCC(=O)N1CCOCC1`, for which the cell number change is -62.4%. Further, under setting [1], the AC50 is 5.8 µM [falling, full curve]. Moreover, under setting [2], the AC50 is 29.1 µM [falling, single point].

On to `O=C(Nc1ccc2c(c1)OCCO2)N1CCOCC1`, for which the AC50 under setting [2] was 2.31 µM [rising, partial curve].

`O=C(O)c1ccc(CSc2nc3ccc(NC(=O)c4ccccc4C(=O)O)cc3s2)cc1`: the cell number change is -33.1%. Further, under setting [1], the AC50 is 0.58 µM [falling, partial curve]. For the same compound, under setting [2], the AC50 is 0.00461 µM [falling, full curve, poor fit].

For `CCOC(=O)N1CCN(C(=O)/C=C/c2ccc3c(c2)OCO3)CC1`, the AC50 under setting [2] is 0.259 µM [rising, full curve, poor fit].

As to `CC(=O)c1cccc(NC(=O)C(C)OC(=O)CNC(=O)c2ccc(C)s2)c1` (centres undefined), the cell number change was -32.1%. Also, under setting [1], the half-maximal activity concentration (AC50) is 0.082 µM [falling, full curve, poor fit]. Besides, the AC50 under setting [2] is 0.116 µM [falling, full curve, poor fit].

Regarding `C/C(=N\O)C1(C)N(O)C(C)(C)C(c2ccc(F)cc2)=[N+]1[O-]` (centres undefined), the cell number change was 18.1%. Besides, the half-maximal activity concentration (AC50) under setting [2] is 0.411 µM [rising, full curve, poor fit].

Take `COc1ccc(NC(=O)C2CC(=O)N(c3cccc(C)c3C)C2)cc1` (centres undefined): the cell number change was determined as 6.93%. Further, the AC50 under setting [2] was 29.1 µM [falling, single point].

In the case of `COc1ccc(-c2nnc(SCC(=O)NNC(=O)c3ccc(C)cc3)o2)cc1`, the cell number change was found to be 18.5%. For the same compound, the half-maximal activity concentration (AC50) under setting [1] was 0.146 µM [falling, full curve, poor fit]. Under setting [2], the AC50 was 5.8 µM [falling, single point].

As to `CC(C)CCOP(=O)(c1ccc(N(C)C)cc1)C(O)c1ccccn1` (centres undefined), the cell number change is -53.1%.

Regarding `Fc1cccc2sc(Nc3nc4c(F)cccc4s3)nc12`, the cell number change was -7.27%.

Turning to `COc1c(Cl)cc(Cl)cc1C(=O)Nc1ccc(C(=O)O)cc1`, the cell number change came out at 7.97%. For the same compound, the AC50 under setting [2] is 2.91 µM [rising, partial curve].

Take `Clc1ccc(-c2nc(Cc3ccccc3Cl)no2)cc1`: the cell number change stood at 0.418%. Besides, the half-maximal activity concentration (AC50) under setting [2] was 0.13 µM [falling, full curve, poor fit].

`O=C(NN1CCCCC1)c1cccc(COc2ccc(Cl)cc2)c1`: the cell number change is -36.6%. For the same compound, under setting [1], the concentration at half-maximal activity (AC50) is 3.26 µM [falling, full curve]. In addition, the AC50 under setting [2] is 29.1 µM [falling, single point].

Turning to `O=C(CSc1nc2cc(C(F)(F)F)ccc2n1Cc1ccccc1)NC1CCS(=O)(=O)C1` (centres undefined), the cell number change is -43.8%. The AC50 under setting [1] is 32.6 µM [falling, partial curve].

`O=C(Nc1nc2ccccc2c2nc3ccccc3n12)c1ccc(F)cc1`: the cell number change came to 7.28%.

As for `CCN(/C=N/c1sc2c(c1C#N)CC(C)(C)NC2(C)C)CC`, the cell number change was -42.9%. Under setting [1], the AC50 is 3.66 µM [falling, full curve]. The AC50 under setting [2] was 29.1 µM [falling, single point].

Consider `O=C(CCN(NC(=O)c1ccccc1)C1=NS(=O)(=O)c2ccccc21)NC1CCCCC1`, for which the cell number change came out at 2.72%. Also, the concentration at half-maximal activity (AC50) under setting [2] was 0.82 µM [falling, full curve, poor fit].

Consider `O=C(NC1CCN(Cc2ccccc2)CC1)c1cc(-c2ccccn2)nc2ccccc12`, for which the cell number change amounted to 50.8%. For the same compound, under setting [1], the AC50 was 20.6 µM [rising, single point]. Besides, under setting [2], the AC50 was 1.46 µM [rising, partial curve].

Take `COc1ccc(C(=O)N/N=C2\CCc3ccccc32)cc1OC`: the cell number change was found to be 37.8%. Besides, the AC50 under setting [1] is 0.461 µM [rising, full curve, poor fit].

`CCOC(=O)C1CCN(c2c(NCc3ccc(C(=O)NC4CCCC4)cc3)c(=O)c2=O)CC1`: the cell number change is 7.61%.

As to `COc1ccccc1NC(=O)Oc1cccc(OC(=O)c2ccccc2)c1`, the cell number change stood at 2.24%. Under setting [2], the AC50 was 0.92 µM [rising, single point].

For the compound `O=C(NCC(=O)N1CCCCCCC1)c1ccccc1Cl`, the cell number change was 8.88%.

Turning to `N#CCC(=O)Nc1ccc(C(=O)OCC(=O)Nc2sc3c(c2C#N)CCCC3)cc1`, the cell number change was -56.1%. In addition, the AC50 under setting [1] is 29.1 µM [falling, single point].

`N#Cc1c(N)nc2c(c1N)CC(CO)O2` (centres undefined): the cell number change stood at 136%. For the same compound, the half-maximal activity concentration (AC50) under setting [1] is 18.4 µM [rising, partial curve, poor fit]. Under setting [2], the half-maximal activity concentration (AC50) is 0.731 µM [rising, partial curve, poor fit].

On to `COc1ccc(C(=O)N(C)Cc2ccccc2F)cc1S(=O)(=O)N1CCCC1`, for which the cell number change turned out to be 34.6%. For the same compound, under setting [1], the AC50 is 29.1 µM [rising, single point]. For the same compound, under setting [2], the AC50 is 0.0058 µM [falling, full curve, poor fit].

For the compound `O=C(CCc1nc(-c2cccs2)no1)Nc1cnc2ccccc2c1`, the cell number change was 11.4%. Also, under setting [2], the half-maximal activity concentration (AC50) is 10.3 µM [rising, partial curve, poor fit].

Consider `COc1ccccc1NC(=O)CN1C(=O)NC(CC(C)C)C1=O` (centres undefined), for which the cell number change was determined as 9.09%. The AC50 under setting [2] was 25.9 µM [rising, single point].

For `CC(C)c1ccc(NC2CCCN(C(=O)CCN3Cc4ccccc4C3=O)C2)cc1` (centres undefined), the AC50 under setting [2] was 29.1 µM [rising, single point].

As for `CN(c1ccc(-c2csc(NC(=O)C3CC(=O)N(Cc4ccco4)C3)n2)cc1)S(C)(=O)=O` (centres undefined), the cell number change is -13.3%. For the same compound, the AC50 under setting [2] is 8.2 µM [falling, partial curve, poor fit].

For `CS(=O)(=O)N(CC(=O)NCc1ccco1)c1ccc(OCc2ccccc2)cc1`, the cell number change is 19.7%. The concentration at half-maximal activity (AC50) under setting [2] was 29.1 µM [falling, partial curve].

With `COc1ccc(C(=O)NC(C(=O)NCc2ccccn2)C(C)C)cc1` (centres undefined), the AC50 under setting [2] is 1.84 µM [falling, partial curve, poor fit].

As for `CCOC(=O)c1cnc(-n2cc(C)cn2)nc1Nc1ccccc1OC`, the cell number change was -1.89%. Besides, under setting [2], the AC50 is 2.06 µM [falling, single point].

Take `Cn1c(NN)nc2sc3c(c2c1=O)CC(C)(C)OC3`: the cell number change was -20.3%. The half-maximal activity concentration (AC50) under setting [2] was 1.46 µM [falling, full curve, poor fit].

Take `CCC(C)(C)NC(=O)CN(CCc1cccc(C)c1)C(=O)c1csnn1`: the cell number change is -35.4%. Also, the half-maximal activity concentration (AC50) under setting [1] was 16.4 µM [falling, partial curve, poor fit]. In addition, the AC50 under setting [2] was 10.3 µM [falling, partial curve, poor fit].

In the case of `CS(=O)(=O)c1ccc2nc(N)sc2c1`, the cell number change is 6.25%. Under setting [2], the AC50 was 0.00411 µM [rising, full curve, poor fit].

As to `C#CCOCCOCCOCCNc1nc(N2CCN(C(=O)CCCCCCCCCCNC(=O)[C@H](CCCCN)n3cc(C)nn3)CC2)nc(N2CCN(C(=O)CCCCCCCCCCNC(=O)[C@@H]([C@H](C)CC)n3cc(CCCCCN)nn3)CC2)n1`, the cell number change was -52.2%. In addition, the AC50 under setting [1] is 18.4 µM [falling, partial curve]. The AC50 under setting [2] was 0.146 µM [falling, full curve, poor fit].

For the compound `O=C(Nc1cccc(F)c1)NC1(C(=O)NCC2CCCO2)CCCCC1` (centres undefined), the cell number change came to 18.1%. In addition, the AC50 under setting [2] is 0.00461 µM [rising, full curve, poor fit].

For the compound `CC(OC(=O)CCN=C1NS(=O)(=O)c2ccccc21)C(=O)Nc1ccc(F)cc1` (centres undefined), the cell number change is -10.1%.

On to `O=C(Cc1cccc2ccccc12)NCCOc1ccccc1F`, for which the cell number change was -3.13%. Further, the AC50 under setting [2] was 1.16 µM [falling, full curve, poor fit].

For the compound `Cn1cnc2c1c(=O)[nH]c(=O)n2Cc1ccccc1`, the cell number change stood at 10.2%. Further, under setting [2], the half-maximal activity concentration (AC50) was 6.51 µM [rising, single point].

Regarding `Cc1ccc(NC(=S)N2CCCC2)cc1`, the cell number change was -40.5%.

For `C#CCOCCOCCOCCNc1nc(N2CCN(C(=O)Cn3cc(CCCCN)nn3)CC2)nc(N2CCN(C(=O)[C@H](CCCCN)n3cc(CCCC)nn3)CC2)n1`, the cell number change was found to be 12.9%. In addition, under setting [1], the AC50 is 0.0164 µM [rising, full curve, poor fit]. Under setting [2], the AC50 was 0.0259 µM [rising, full curve].

Take `CCc1nc2ccc(C(=O)NCCc3ccccc3OC)cc2nc1CC`: the cell number change worked out at 11.6%.

In the case of `COc1ccc(C2=Nn3c(nnc3-c3cccnc3)SC2)cc1OC`, the cell number change was -10.8%.

Take `COc1ccccc1Oc1ccc(S(=O)(=O)Nc2cccnc2)cc1`: the cell number change is 74.5%. The concentration at half-maximal activity (AC50) under setting [1] was 3.66 µM [rising, full curve]. Also, under setting [2], the half-maximal activity concentration (AC50) was 6.51 µM [rising, single point].
